Taken from: PubChem BioAssay AID1224826 (NIAID, 2016)

Screen: 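Genes that change LPS-induced Tnf promoter activity in mouse macrophages when knocked down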 (primary screen)
System: RAW264.7 G9 macrophages from mouse bearing reporters for p65 (GFP) and the Tnf promoter (mCherry)
Knock-down reagent: siRNA pool against mouse genes, 100 nM
Time to read-out: 16 h of LPS stimulation, after 2 days of siRNA transfection
Challenge: bacterial lipopolysaccharide (Salmonella minnesota R595), 10 ng/ml
Measured: 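Imaged Tnf reporter mCherry in nuclei, minus background, normalised per plate to the median and expressed as robust z-scores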
Scale: Tnf reporter robust z-score: higher = stronger Tnf promoter reporter signal after LPS; Tnf reporter intensity: higher = stronger Tnf promoter reporter signal
Hit rule: 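a well counts as active at a score of -1.3 or below (Tlr4 knock-down control median) or above 3 (raised signal); controls and wells holding fewer than 50 cells are excluded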
Calls: active = Tnf reporter clearly lowered or raised; inactive = no clear change in Tnf reporter
The deposit covers about 17,000 reagents; shown is a random part of them. Over the whole deposit, about 1,110 (6.6%) were called active. 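Active means lowered or raised reporter signal; replicate intensities are raw and not normalised per plate.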 Entries without a mark were called inactive.

Target gene	Tnf reporter robust z-score	fewer than 50 cells in well	Tnf reporter intensity, replicate 1	Tnf reporter intensity, replicate 2
Klra4 (GeneID 16635)	-0.7	enough cells in well	190	110
Slc8a3 (GeneID 110893)	0.13	enough cells in well	127	83.4
5330430C04Rik (GeneID 78274)	-0.43	enough cells in well	184	94.9
H2ac25 (GeneID 319162)	-1.7 (active)	enough cells in well	115	63.5
Gas6 (GeneID 14456)	2.16	enough cells in well	356	284
Prorsd1 (GeneID 67939)		fewer than 50 cells per well; well left out of calls	151	46.9
Nr2f1 (GeneID 13865)	-0.54	enough cells in well	170	170
Hspb2 (GeneID 69253)	0.08	enough cells in well	265	175
Il1r2 (GeneID 16178)	-0.5	enough cells in well	193	129
Clmp (GeneID 71566)	0.82	enough cells in well	262	207
Gars1 (GeneID 353172)	-0.52	enough cells in well	216	190
Bmerb1 (GeneID 67254)		fewer than 50 cells per well; well left out of calls	195	66.3
Sprr2i (GeneID 20763)	1.92	enough cells in well	178	152
Pigq (GeneID 14755)	1.47	enough cells in well	217	202
H2-D1 (GeneID 14964)	0.08	enough cells in well	277	151
Akr1c21 (GeneID 77337)	-0.25	enough cells in well	237	126
B3galt6 (GeneID 117592)	0.84	enough cells in well	183	246
Kcmf1 (GeneID 74287)	-0.43	enough cells in well	166	111
Raver2 (GeneID 242570)		fewer than 50 cells per well; well left out of calls	81.4	76.9
Lime1 (GeneID 72699)	1.66	enough cells in well	339	125
Smyd5 (GeneID 232187)		fewer than 50 cells per well; well left out of calls	54.6	210
Prdx2 (GeneID 21672)	-1.62 (active)	enough cells in well	123	77
Fam13c (GeneID 71721)	0.5	enough cells in well	219	111
Tk2 (GeneID 57813)		fewer than 50 cells per well; well left out of calls	179	119
Slco1c1 (GeneID 58807)		fewer than 50 cells per well; well left out of calls	90.7	104
Smchd1 (GeneID 74355)		fewer than 50 cells per well; well left out of calls	146	37.7
LOC67527 (GeneID 67527)	4.98 (active)	enough cells in well	536	252
Fga (GeneID 14161)	-1.22	enough cells in well	138	132
Cplx1 (GeneID 12889)	0.51	enough cells in well	223	200
Brix1 (GeneID 67832)	-0.65	enough cells in well	147	73.9
Ppp1cc (GeneID 19047)	0.53	enough cells in well	288	228
Trp53bp1 (GeneID 27223)	-0.14	enough cells in well	189	255
Mef2c (GeneID 17260)	-1.21	enough cells in well	144	132
Fsd2 (GeneID 244091)	-0.08	enough cells in well	219	137
Ap1g2 (GeneID 11766)	-1.69 (active)	enough cells in well	89.5	80.3
Atg101 (GeneID 68118)		fewer than 50 cells per well; well left out of calls	83.6	134
Cdr2 (GeneID 12585)	0.04	enough cells in well	222	238
Alkbh2 (GeneID 231642)	-1.17	enough cells in well	85	101
Wdr31 (GeneID 71354)	-0.09	enough cells in well	117	125
Or6x1 (GeneID 258608)	2.38	enough cells in well	278	228
Sgta (GeneID 52551)	0.55	enough cells in well	96.1	146
Kcnv1 (GeneID 67498)	0.34	enough cells in well	252	178
Arid2 (GeneID 77044)	1.77	enough cells in well	343	196
Or5al6 (GeneID 404323)	0.91	enough cells in well	228	210
Rrh (GeneID 20132)	-0.49	enough cells in well	221	75.2
Vmn1r198 (GeneID 171254)	0.91	enough cells in well	154	180
Angptl1 (GeneID 72713)	1.52	enough cells in well	253	257
Or2ad1 (GeneID 258527)	-0.2	enough cells in well	172	100
Nid1 (GeneID 18073)	0.15	enough cells in well	269	179
Psmd6 (GeneID 66413)		fewer than 50 cells per well; well left out of calls	120	126
Zfp276 (GeneID 57247)	-1.29	enough cells in well	81.2	58.3
Ccser2 (GeneID 72972)	1.2	enough cells in well	241	21.3
Cggbp1 (GeneID 106143)	0.7	enough cells in well	380	185
Fam229b (GeneID 66337)	-1.07	enough cells in well	168	40.2
Zfp385a (GeneID 29813)	-0.14	enough cells in well	95.6	145
Kctd10 (GeneID 330171)	-0.43	enough cells in well	171	108
Sntg2 (GeneID 268534)	0.01	enough cells in well	61.1	92.5
Rngtt (GeneID 24018)	-1.04	enough cells in well	88	77.7

10 entries from above, ordered by “Tnf reporter intensity, replicate 2”, ascending.
Target gene	Tnf reporter robust z-score	fewer than 50 cells in well	Tnf reporter intensity, replicate 1	Tnf reporter intensity, replicate 2
Ap1g2 (GeneID 11766)	-1.69 (active)	enough cells in well	89.5	80.3
Alkbh2 (GeneID 231642)	-1.17	enough cells in well	85	101
Wdr31 (GeneID 71354)	-0.09	enough cells in well	117	125
Mef2c (GeneID 17260)	-1.21	enough cells in well	144	132
Atg101 (GeneID 68118)		fewer than 50 cells per well; well left out of calls	83.6	134
Fsd2 (GeneID 244091)	-0.08	enough cells in well	219	137
Sgta (GeneID 52551)	0.55	enough cells in well	96.1	146
Or6x1 (GeneID 258608)	2.38	enough cells in well	278	228
Cdr2 (GeneID 12585)	0.04	enough cells in well	222	238
Trp53bp1 (GeneID 27223)	-0.14	enough cells in well	189	255
